According to patent US7704994B2, “Benzazepine derivatives for the treatment of neurological disorders” (Glaxo Group Limited, priority 2002, dated 2010):
Some results were stated once for a whole list of compounds, not compound by compound. Some ranges recur; such a range may be that of the whole group of compounds.

Protein sequences, listed by entry. Tags and fused reporters are not part of them. Lines headed by an entry give the natural chain unless they say otherwise; changes in a name come on top.
UniProt Q9Y5N1: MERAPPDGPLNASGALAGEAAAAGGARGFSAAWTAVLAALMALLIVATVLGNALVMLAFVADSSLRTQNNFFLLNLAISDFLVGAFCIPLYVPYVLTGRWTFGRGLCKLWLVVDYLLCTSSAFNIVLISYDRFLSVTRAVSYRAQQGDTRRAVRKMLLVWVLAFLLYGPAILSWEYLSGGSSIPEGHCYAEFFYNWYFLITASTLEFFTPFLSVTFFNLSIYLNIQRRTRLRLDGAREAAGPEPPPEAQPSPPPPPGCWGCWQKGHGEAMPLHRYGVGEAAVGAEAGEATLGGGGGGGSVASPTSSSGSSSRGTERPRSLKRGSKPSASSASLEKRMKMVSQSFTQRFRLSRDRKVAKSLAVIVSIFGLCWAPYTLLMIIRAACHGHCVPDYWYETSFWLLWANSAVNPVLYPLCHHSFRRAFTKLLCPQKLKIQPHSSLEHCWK

Biological target: T1, human histamine H3 receptor (Homo sapiens, UniProt Q9Y5N1)
T1 construct: expressed in transfected cells; host or cells: CHO K1 cells carrying pSwitch, transfected with pGeneH3 and induced with mifepristone; membranes of clone 3H3
Test: Histamine H3 functional antagonist assay
Format: biochemical
Details: membranes of CHO K1 cells expressing human histamine H3; [35S]GTPγS SPA; histamine 0.3 μM
Experimental: A membrane preparation containing histamine H3 receptors may be prepared in accordance with the following procedures:
Ligated DNA was transformed into competent DH5α E. coli host bacterial cells and plated onto Luria Broth (LB) agar containing Zeocin™ (an antibiotic which allows the selection of cells expressing the sh ble gene which is present on pGene and pSwitch) at 50 μg ml^−1. Colonies containing the re-ligated plasmid were identified by restriction analysis. DNA for transfection into mammalian cells was prepared from 250 ml cultures of the host bacterium containing the pGeneH3 plasmid and isolated using a DNA preparation kit (Qiagen Midi-Prep) as per manufacturers guidelines (Qiagen).
CHO K1 cells previously transfected with the pSwitch regulatory plasmid (InVitrogen) were seeded at 2×10e6 cells per T75 flask in Complete Medium, containing Hams F12 (GIBCOBRL, Life Technologies) medium supplemented with 10% v/v dialysed foetal bovine serum, L-glutamine, and hygromycin (100 μg ml^−1), 24 hours prior to use. Plasmid DNA was transfected into the cells using Lipofectamine plus according to the manufacturers guidelines (InVitrogen). 48 hours post transfection cells were placed into complete medium supplemented with 500 μg ml^−1 Zeocin™.
10-14 days post selection 10 nM Mifepristone (InVitrogen), was added to the culture medium to induce the expression of the receptor. […] Approximately 1×10e7 cells were examined for receptor expression by staining with a rabbit polyclonal antibody, 4a, raised against the N-terminal domain of the histamine H3 receptor, incubated on ice for 60 minutes, followed by two washes in sorting medium. […] Following two further washes with Sorting Medium, cells were filtered through a 50 μm Filcon™ (BD Biosciences) and then analysed on a FACS Vantage SE Flow Cytometer fitted with an Automatic Cell Deposition Unit. […] Positively stained cells were sorted as single cells into 96-well plates, containing Complete Medium containing 500 μg ml^−1 Zeocin™ and allowed to expand before reanalysis for receptor expression via antibody and ligand binding studies.
All steps of the protocol are carried out at 4° C. and with pre-cooled reagents. […] The cells are then homogenised by 2×15 second bursts in a 1 litre glass Waring blender, followed by centrifugation at 500 g for 20 minutes. The supernatant is then spun at 48,000 g for 30 minutes. The pellet is resuspended in 4 volumes of buffer A2 by vortexing for 5 seconds, followed by homogenisation in a Dounce homogeniser (10-15 strokes). At this point the preparation is aliquoted into polypropylene tubes and stored at −70° C.
(II) Histamine H3 Functional Antagonist Assay
The plate is then incubated on a shaker at room temperature for 30 minutes followed by centrifugation for 5 minutes at 1500 rpm. The plate is read between 3 and 6 hours after completion of centrifuge run in a Wallac Microbeta counter on a 1 minute normalised tritium count protocol. Data is analysed using a 4-parameter logistic equation. Basal activity used as minimum i.e. histamine not added to well.

SMILES | antagonism (pKb)
c1ccc(COc2ccc3c(c2)CCN(C2CCCC2)CC3)cc1 [Example 2, 7-Benzyloxy-3-cyclopentyl-2,3,4,5-tetrahydro-1H-benzo[d]azepine] | 6.5-10.5 pKb
c1ccc(COc2ccc3c(c2)CCN(C2CCC2)CC3)cc1 [Example 1, 7-Benzyloxy-3-cyclobutyl-2,3,4,5-tetrahydro-1H-benzo[d]azepine] | 6.5-10.5 pKb
c1cc(COc2ccc3c(c2)CCN(C2CCC2)CC3)ccn1 [Example 84, 3-Cyclobutyl-7-(pyridin-4-ylmethoxy)-2,3,4,5-tetrahydro-1H-benzo[d]azepine] | 6.5-10.5 pKb
c1ccc(COc2ccc3c(c2)CCN(C2CCC2)CC3)nc1 [Example 82, 3-Cyclobutyl-7-(pyridin-2-ylmethoxy)-2,3,4,5-tetrahydro-1H-benzo[d]azepine] | 6.5-10.5 pKb
Oc1ccc2c(c1)CCN(C1CCC1)CC2 [Example 3, 3-Cyclobutyl-2,3,4,5-tetrahydro-1H-benzo[d]azepin-7-ol] | 6.5-10.5 pKb
Ic1cc2c(cc1OCc1ccccc1)CCN(C1CCC1)CC2 [Example 226, 3-Cyclobutyl-7-iodo-8-[(phenylmethyl)oxy]-2,3,4,5-tetrahydro-1H-3-benzazepine] | 6.5-10.5 pKb
c1cncc(COc2ccc3c(c2)CCN(C2CCC2)CC3)c1 [Example 83, 3-Cyclobutyl-7-(pyridin-3-ylmethoxy)-2,3,4,5-tetrahydro-1H-benzo[d]azepine] | 6.5-10.5 pKb
